“And” between values parts separate entries of the source, which are not always exact repeats. Identical values can stand only once. The list shows a part of the results. The main result of the screen is listed elsewhere. These columns were measured beside it and carry no call. The list favours compounds with an active or inconclusive main result. The note in brackets gives the kind of curve behind each potency; many fits are weak.
Test: IkB Signaling
Conditions: ABC-DLBCL IkBa-CBG/CBR dual luciferase ratio (green luciferase fused to IkBa over red control in OCI-Ly3 lymphoma cells), 4 h
In short: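 Luminescence ratio of IκBα-fused green versus native red beetle luciferase in OCI-Ly3 cells, 4 h post-doxycycline with compound; red signal alone, scaled from basal (0%) to zero light (-100%), flagged nonspecific or cytotoxic effects.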

[1] = measured here: control luc red channel unless noted
[2] = measured here: IkB-luc green channel
[3] = measured here: control luc red channel

With `Cc1ccc(-n2c(CCC(=O)O)ccc2-c2cccs2)cc1C` as the molecule, how does the AC50 [1] read?
The AC50 was 12.6 µM [falling, partial curve].

For `O=C(CSc1nnc(-c2cccc(F)c2)c(-c2cccc(F)c2)n1)NC1CCCCC1`, which AC50 [1] is on record?
The AC50 was 7.94 µM [falling, partial curve].

With `O=C(Cn1ncc2c(=O)oc3ccccc3c21)N1CCN(c2ccc(Cl)cc2)CC1` as the molecule, how does the AC50 [1] read?
Its AC50 is 25.1 µM [falling, partial curve].

Which AC50 [1] does the source give for `COc1cc(Cl)c(C)cc1NC(=O)c1cnn(-c2ccc(F)cc2F)c1C1CCN(C(=O)OC(C)(C)C)CC1` here?
Its AC50 is 0.0316 µM [falling, full curve, poor fit].

Which AC50 [1] does the source give for `CCOC(=O)c1c(NC(=O)COc2ccccc2Br)sc2c1CCCCC2` here?
Its AC50 is 12.6 µM [falling, partial curve].

For `CC(C)(C)c1ccc(C(=O)N(Cc2ccc(F)cc2)Cc2ccco2)cc1`, which AC50 [1] is on record?
Its AC50 is 20 µM [falling, partial curve, poor fit].

For `Cc1ccc(-c2nnc(Nc3ccccc3)c3ccccc23)cc1S(=O)(=O)N1CCN(C)CC1`, which AC50 [1] is on record?
Its AC50 is 15.8 µM [falling, partial curve].

With `CCCS(=O)(=O)c1c(S(=O)(=O)CCC)c2c(N)cccn2c1C(=O)c1ccc(F)cc1` as the molecule, how does the AC50 [1] read?
The AC50 was 20 µM [falling, partial curve].

For `Cc1ccc(CNC(=O)Cc2ccc(NC(=O)N3CCSc4ncccc43)cc2)cc1`, which AC50 [1] is on record?
The AC50 was 25.1 µM [falling, single point].

With `CC(C)(C)NC(=O)N1CCC(C(=O)O)CC1` as the molecule, how does the AC50 [1] read?
The AC50 was 5.01 µM [falling, single point].

Which AC50 [1] does the source give for `CCCNC(=O)c1ccc(Cn2c(=O)c3cccn3c3cccnc32)cc1` here?
The AC50 was 1 µM [rising, full curve, poor fit].

For `Cc1cc2cc(CN(Cc3ccco3)C(=O)C3CCCCC3)c(=O)[nH]c2cc1C`, which AC50 [1] is on record?
Its AC50 is 1.26 µM [falling, partial curve].

Which AC50 [1] does the source give for `COCCCNC(=O)CCCn1c(=O)c2cccn2c2ccccc21` here?
Its AC50 is 12.6 µM [falling, partial curve].

With `COc1ccccc1CNC(=O)CCC1N=C2c3ccccc3N=C(SCc3ccc(Cl)cc3)N2C1=O` (stereo not drawn) as the molecule, how does the AC50 [1] read?
Its AC50 is 39.8 µM [falling, single point].

With `O=C1CCCc2cc(S(=O)(=O)NCC3CCC(C(=O)NCc4ccc(F)cc4)CC3)ccc2N1` (stereo not drawn) as the molecule, how does the AC50 [1] read?
Its AC50 is 39.8 µM [falling, single point].

With `Cc1ccc(N2CCN(S(=O)(=O)c3ccc(Cl)c4ccccc34)CC2)c(C)c1` as the molecule, how does the AC50 [1] read?
Its AC50 is 20 µM [falling, partial curve].

For `O=C(Nc1cccc(C(F)(F)F)c1)c1cccc(C(=O)Nc2cccc(C(F)(F)F)c2)c1`, which AC50 [1] is on record?
Its AC50 is 15.8 µM [rising, partial curve].

With `CCOC(=O)c1c(C)sc(-c2c(-c3cccc(Cl)c3)[nH]c3c2c(=O)n(C)c(=O)n3C)c1O` as the molecule, how does the AC50 [1] read?
The AC50 was 1 µM [falling, full curve, poor fit].

With `CC(=O)Nc1ccc(NC(=O)C2CCN(c3cnccn3)CC2)cc1` as the molecule, how does the AC50 [1] read?
Its AC50 is 39.8 µM [falling, single point].

For `COc1ccc(CCN2C(=O)c3[nH]nc(-c4ccccc4O)c3C2c2ccccc2)cc1` (stereo not drawn), which AC50 [1] is on record?
Its AC50 is 15.8 µM [falling, partial curve].

For `CCN(CCCNC(=O)c1ccc(Sc2ccc(Cl)cc2)c(NC(C)=O)c1)c1ccccc1`, which AC50 [1] is on record?
The AC50 was 39.8 µM [falling, partial curve].

Which AC50 [1] does the source give for `CCn1cc2nc(SCc3ccc(F)cc3)n(CCc3ccccc3)c(=O)c2n1` here?
The AC50 was 39.8 µM [falling, single point].

Which AC50 [1] does the source give for `CCn1c(SCC(=O)c2cc(OC)ccc2OC)nnc1C(C)C` here?
Its AC50 is 31.6 µM [rising, partial curve] [measured here: IkB-luc green channel].

For `CCn1c(=O)cc(OCC(=O)Nc2cc(C)ccn2)c2ccccc21`, which AC50 [1] is on record?
The AC50 was 7.94 µM [falling, partial curve].

Which AC50 [1] does the source give for `COc1ccc(OC)c(NC(=O)C2C3CCC(O3)C2C(=O)O)c1` (stereo not drawn) here?
The AC50 was 25.1 µM [rising, partial curve] [measured here: IkB-luc green channel].

For `O=S(=O)(c1ccccc1)c1nc(-c2cccc(Cl)c2)oc1N1CCOCC1`, which AC50 [1] is on record?
Its AC50 is 25.1 µM [falling, single point].

With `COC(=O)c1ccc(NC(=O)CSc2nc(=O)[nH]c3c2CCCC3)cc1` as the molecule, how does the AC50 [1] read?
The AC50 was 3.16 µM [falling, single point].

For `Cc1noc(C)c1C(=O)OCC(=O)Nc1ccccc1C(=O)NC(C)c1ccccc1` (stereo not drawn), which AC50 [1] is on record?
Its AC50 is 31.6 µM [falling, single point].

Which AC50 [1] does the source give for `CN(C)c1ccc(C(CNC(=O)c2ccccc2)N2CCc3ccccc32)cc1` (stereo not drawn) here?
The AC50 was 10 µM [falling, partial curve].

With `Cc1onc(-c2ccccc2Cl)c1C(=O)Nc1ccc(-n2nncc2-c2ccco2)cc1` as the molecule, how does the AC50 [1] read?
The AC50 was 12.6 µM [falling, partial curve].

With `CCC1=Nc2cc(C(=O)NCCCOC)ccc2Sc2ccc(Br)cc21` as the molecule, how does the AC50 [1] read?
Its AC50 is 794 nM [rising, full curve] [measured here: IkB-luc green channel].

For `CC(C)CC(=O)Nc1cccc(-c2nc3ccccc3[nH]2)c1`, which AC50 [1] is on record?
The AC50 was 20 µM [falling, partial curve].

For `Cc1ccc(SCCNC(=O)CN(c2ccccc2)S(=O)(=O)N(C)C)cc1`, which AC50 [1] is on record?
Its AC50 is 12.6 µM [falling, single point].

Which AC50 [1] does the source give for `Cc1ccc(Cl)cc1NC(=O)c1cnc(N2CCCCC2)c2ccccc12` here?
Its AC50 is 39.8 µM [falling, partial curve, poor fit].

With `N#Cc1ccc(C(=O)Nc2cc3nn(-c4ccccc4)nc3cc2Cl)c(F)c1` as the molecule, how does the AC50 [1] read?
Its AC50 is 0.316 µM [rising, full curve].

What does the source list for `O=C(N[C@@H](Cc1ccccc1)C(=O)CCl)OCc1ccccc1`?
AC50 [2]: 5.01 µM [falling, full curve]; AC50 [3]: 2.51 µM [falling, full curve]

For `COc1ccc(NC(=O)C(=O)NCCc2csc(-c3ccc(Cl)cc3)n2)cc1OC`, which AC50 [1] is on record?
Its AC50 is 2 µM [falling, full curve].

With `COc1ccccc1NC(=O)C(=O)NCC(c1ccc2c(c1)OCO2)N1CCN(C)CC1` (stereo not drawn) as the molecule, how does the AC50 [1] read?
The AC50 was 3.16 µM [falling, full curve].

With `CCOc1cc2sc(N3CCC(C(=O)Nc4ccc(C)cc4C)CC3)nc2cc1Br` as the molecule, how does the AC50 [1] read?
Its AC50 is 0.0794 µM [falling, full curve].

Which AC50 [1] does the source give for `COc1ccc(S(=O)(=O)N(CC(=O)Nc2ccccc2Br)Cc2ccccc2)cc1` here?
Its AC50 is 7.94 µM [falling, partial curve].

For `CC(NC(=O)CC1Nc2ccccc2NC1=O)c1ccccc1` (stereo not drawn), which AC50 [1] is on record?
The AC50 was 12.6 µM [falling, partial curve].

For `Cc1cn2c(=O)cc(COc3ccccc3NC(=O)c3ccco3)nc2s1`, which AC50 [1] is on record?
The AC50 was 0.0794 µM [rising, full curve, poor fit].

With `O=S(=O)(c1ccc(Br)cc1)c1nnn2c1nc(N1CCOCC1)c1sccc12` as the molecule, how does the AC50 [1] read?
The AC50 was 12.6 µM [falling, partial curve].

With `CC(C)C(C(=O)NCc1ccco1)N(C(=O)CNS(=O)(=O)c1ccc(Cl)cc1)C1CCCC1` (stereo not drawn) as the molecule, how does the AC50 [1] read?
The AC50 was 15.8 µM [falling, partial curve].

For `CCN1CCc2nc3sc(C(=O)Nc4cccc(Cl)c4C)c(N)c3cc2C1`, which AC50 [1] is on record?
The AC50 was 25.1 µM [falling, single point].

With `CC1CCC(C(=O)NC(C(=O)OCC(=O)c2ccccc2)C(C)C)CC1` (stereo not drawn) as the molecule, how does the AC50 [1] read?
The AC50 was 25.1 µM [falling, single point].

With `O=C(Nc1cccc(-c2nnn(CC(=O)N3CCc4ccccc4C3)n2)c1)C1CCC1` as the molecule, how does the AC50 [1] read?
Its AC50 is 39.8 µM [falling, single point].

Which AC50 [1] does the source give for `COc1ccc(-c2noc(CCC(=O)N3CCN(c4cc(C)ccc4C)CC3)n2)cc1` here?
Its AC50 is 10 µM [falling, partial curve].

For `CCc1cnc2c(c1SCC(=O)c1ccccc1)c(=O)n(C)c(=O)n2C`, which AC50 [1] is on record?
The AC50 was 31.6 µM [falling, single point].

With `COc1cccc(-c2cn3nc4c(nc3n2)CCCC4)c1` as the molecule, how does the AC50 [1] read?
The AC50 was 10 µM [falling, partial curve].

Which AC50 [1] does the source give for `COc1ccc(-c2ccc(NS(=O)(=O)c3ccc(OC)c(OC)c3)cc2)nn1` here?
Its AC50 is 15.8 µM [falling, partial curve].

With `COc1ccc(OCc2nc3ccccc3n2Cc2ccccc2Cl)cc1` as the molecule, how does the AC50 [1] read?
Its AC50 is 25.1 µM [falling, single point].

Which AC50 [1] does the source give for `Cc1ccc(N(Cc2cccs2)C(=O)COc2cccc(C)c2)cc1` here?
The AC50 was 20 µM [falling, partial curve].

For `CC(=O)c1ccc(NC(=O)Cn2c(=O)n(Cc3ccco3)c(=O)c3sc4ccccc4c32)cc1`, which AC50 [1] is on record?
Its AC50 is 7.94 µM [falling, single point].

For `Cc1ccc(S(=O)(=O)N2CCN(C(=O)CCC(=O)NC3CCCc4ccccc43)CC2)cc1` (stereo not drawn), which AC50 [1] is on record?
The AC50 was 25.1 µM [falling, partial curve].

With `COc1ccc(C2=NC(C)(C)N(CC(=O)Nc3ccc(F)c(F)c3)C2=O)cc1` as the molecule, how does the AC50 [1] read?
The AC50 was 25.1 µM [falling, partial curve].

For `CCN1CCN(c2cc(C)c3cc(NC(=O)c4cc(Cl)ccc4OC)ccc3n2)CC1`, which AC50 [1] is on record?
Its AC50 is 15.8 µM [falling, partial curve].

With `C=CCNc1nc2c3ccccc3n(C(C)=O)c2s1` as the molecule, how does the AC50 [2] read?
The AC50 was 39.8 µM [rising, single point].

And the AC50 [3]?
The AC50 was 31.6 µM [falling, single point].

Which AC50 [1] does the source give for `CC1(C)CC(=O)C2=C(C1)Oc1ncn(Cc3ccco3)c(=N)c1C2c1ccccc1` (stereo not drawn) here?
The AC50 was 15.8 µM [falling, partial curve].

For `Cc1ccc(OCC(O)Cn2c(=N)n(CCN3CCCCC3)c3ccccc32)cc1` (stereo not drawn), which AC50 [1] is on record?
The AC50 was 25.1 µM [falling, single point] and 31.6 µM [falling, single point].

For `Cc1ccc(NC(=O)c2c(C)nc3sc(C(=O)Nc4ccc(F)cc4)c(N)c3c2-c2ccccc2Cl)c(C)c1`, which AC50 [1] is on record?
Its AC50 is 2 µM [falling, partial curve].
